The record followed here is paper PMC9246916.

Chains of the proteins cited; added tags and fusions are not shown.
UniProt Q03135: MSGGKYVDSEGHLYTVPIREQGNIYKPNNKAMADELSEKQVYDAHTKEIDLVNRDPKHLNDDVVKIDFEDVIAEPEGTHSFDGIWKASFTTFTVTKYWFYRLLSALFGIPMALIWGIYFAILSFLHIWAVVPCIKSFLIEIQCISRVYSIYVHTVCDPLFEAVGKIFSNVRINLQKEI

These are yes or no findings as the source states them, for the method shown. In cells and extracts the contact can be indirect. Some entries that bind do so weakly or less than the wild type.

Assay [1] deals with Caveolin-1 (human (endogenous in hAECs)) (UniProt Q03135). Kind of assay: co-IP; endogenous proteins in lysates of hAECs exposed to silica (100 µg/ml, 72 h) or BLM (40 µg/ml, 24 h), with or without CSP7; IP by Cav1, blots for the partners; IP with non-specific IgG and inputs as controls.
The target is the same in assay [2]. Put plainly: condition: only hAECs treated with CSP7 (20 μM after silica, 10 μM after BLM); co-IP; as a1, silica- or BLM-injured hAECs treated with CSP7 (20 µM for the last 24 or 48 h of silica; 10 µM for the last 4 or 8 h of BLM) before lysis.

On to “Sequestosome 1 (SQSTM1/p62) (from UniProt Q13501 1-440)”, for which the binding result in assay [1] is “binds”; in assay [2], “no binding”.
